Reference: PubChem BioAssay AID2718 (Broad Institute, 2010)
Screen size: about 320,000 compounds; about 480 (0.15%) were called active. Inconclusive results, whose numbers are uncertain, are shown with a selection of clear calls. Cut-off read from the data, not from the text of the source: active = inhibition above about 26% (passing the limit was not always enough); inconclusive = no clear call, values can overlap the other calls.

Sequences of proteins named here, by UniProt entry; tags and fusion partners are left off.
UniProt O15379, whole entry, looked up: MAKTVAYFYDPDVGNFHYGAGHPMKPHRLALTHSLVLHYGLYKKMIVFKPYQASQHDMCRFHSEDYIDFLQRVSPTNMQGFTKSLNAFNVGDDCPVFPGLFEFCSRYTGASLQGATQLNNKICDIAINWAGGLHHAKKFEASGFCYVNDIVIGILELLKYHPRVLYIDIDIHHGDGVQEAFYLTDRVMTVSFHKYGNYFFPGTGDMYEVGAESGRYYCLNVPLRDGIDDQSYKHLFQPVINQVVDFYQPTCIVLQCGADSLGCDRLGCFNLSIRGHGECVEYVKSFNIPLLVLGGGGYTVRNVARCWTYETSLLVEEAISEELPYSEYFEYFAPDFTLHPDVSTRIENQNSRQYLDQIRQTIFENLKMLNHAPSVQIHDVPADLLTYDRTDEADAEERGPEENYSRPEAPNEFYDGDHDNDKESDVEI

Target: Histone deacetylase 3 (Homo sapiens) (UniProt O15379)
Assay: HDAC3 deacetylase inhibitors, primary screen, biochemical, fluorescence, cell-free homogeneous (AID 2718)
Settings: recombinant HDAC3, fluorogenic peptide/trypsin coupled, at 8.3 µM, active compounds read high

Row | SMILES | inhibition
1 | Cc1ccc(N=Cc2cc(Br)cc(Cl)c2O)cc1 | inconclusive: 23%
2 | C/C(=N\NC(=O)c1cc(-c2cccc([N+](=O)[O-])c2)n[nH]1)c1ccc(F)cc1 | inactive: 6.32%
3 | Cc1cccc(C)c1NC(=O)COC(=O)c1ccc([N+](=O)[O-])o1 | inconclusive: 21.8%
4 | COc1ccc(O)c(/C=N/Nc2nc(C)cc(-c3ccccc3)n2)c1 | inconclusive: 26.4%
5 | CCCN(CC1CC1)C(=O)COc1ccccc1C(=O)NCc1ccccc1 | inactive: -7.25%
6 | C#CCOCCOCCOCCNc1nc(N2CCN(C(=O)[C@H]([C@@H](C)CC)n3cc([C@@H](N)Cc4ccc(O)cc4)nn3)CC2)nc(N2CCN(C(=O)[C@H]([C@@H](C)CC)n3cc([C@@H](N)CC(C)C)nn3)CC2)n1 | inconclusive: 13.5%
7 | C[C@@H]1COC(=O)[C@H](CC(=O)OC(C)(C)C)C/C=C\C[C@@H](CC(=O)N[C@H](CO)Cc2ccccc2)C(=O)N1 | inactive: 0.609%
8 | O=C(CCS(=O)(=O)c1ccc(Br)cc1)NC1CCCC1 | inactive: 0.391%
9 | CCCCc1c(O)nc(SCC(=O)c2ccccc2)[nH]c1=O | active: 45.6%
10 | Cc1ccc(OCC(=O)OCc2nc3scc(-c4ccccc4)c3c(=O)[nH]2)cc1C | inconclusive: 16%
11 | COc1ccc(S(=O)(=O)N2CCC3(CC2)CC(=O)c2ccccc2O3)cc1 | inactive: 0.543%
12 | CCCCC[C@H]1CN(CCc2ccccc2)C(=O)[C@@H]1CC(=O)NCc1ccc(OC)cc1 | inconclusive: 19.2%
13 | CCOc1ccccc1NC(=O)COc1ccc(S(=O)(=O)N2CCCC2)cc1 | inconclusive: 17.6%
14 | C=CC[C@H](CC(=O)N[C@H](CO)Cc1ccccc1)C(=O)N[C@@H](COC(=O)[C@@H](CC=C)CC(=O)OC(C)(C)C)Cc1c[nH]c2ccccc12 | active: 31.9%
15 | O=C(CN(C(=O)c1csnn1)c1ccc(F)cc1)NCCc1ccccc1 | inconclusive: 17.3%
16 | CCOC(=O)N1CCN(CCc2ccccc2)CC1 | inconclusive: 21.5%
17 | COc1cc(OC)c(OC)cc1/C=N/NC(=S)NCC1CCCO1 (stereo not given) | inconclusive: 13.7%
18 | CC(C)(C)c1ccc(NC(=O)CSc2nnc(-c3n[nH]c4ccccc34)o2)cc1 | inconclusive: 21.5%
19 | COc1cc(/C=N/NC(=O)c2cc(-c3c(C)nn(-c4ccccc4)c3C)n[nH]2)ccc1O | inconclusive: 29.4%
20 | CCCn1c(N)c(N(C)C)c(=O)n(CC(=O)Nc2ccc(OC(F)(F)F)cc2)c1=O | inconclusive: 19.6%
21 | CCOc1ccccc1NC(=O)Nc1ccncc1 | inactive: -3.18%
22 | CCc1ccc(S(=O)(=O)N/N=C(/C)c2ccncc2)cc1 | inconclusive: 12.3%

Row | SMILES | inhibition
23 | O=C(NCc1ccc2c(c1)OCO2)c1ccc(CSCc2ccc(Cl)cc2)o1 | inconclusive: 15.6%
24 | O=C(NC1(Cc2ccccc2)CCN(CCc2cccs2)C1=O)c1ccccc1 (stereo not given) | inconclusive: 20.1%
25 | CN(C)N1C(N)=C(C#N)C(c2ccccc2Cl)C2=C1CCCC2=O (stereo not given) | inactive: 8.2%
26 | CC12CCC(=O)N1C(C(=O)OCC(=O)Nc1ccc(Cl)c(Cl)c1)CS2 (stereo not given) | inconclusive: 19.8%
27 | CCOCCCN(Cc1ccco1)C(=O)c1cc2c(=O)[nH]c3ccc(C)cc3c2s1 | inactive: -11.4%
28 | CC(C)CC(=O)Nc1ccc(-c2nnn(CC(=O)NCc3ccco3)n2)cc1 | inconclusive: 6.72%
29 | CCOC(=O)c1ccc(NC(=O)CSCc2ccco2)cc1 | inconclusive: 38%
30 | CCOC(=O)COc1c(Cl)cc(/C=C2\N=C(C)OC2=O)cc1OC | active: 65.9%
31 | Cc1ccc(-n2nnnc2SCC(=O)Nc2c(C)n(C)n(-c3ccccc3)c2=O)cc1 | inconclusive: 15.3%
32 | c1ccc(Cc2nnc3sc(-c4cccnc4)nn23)cc1 | inactive: -2.34%
33 | Cc1cccc(CSc2ncnc3nc[nH]c23)c1 | inconclusive: 14.8%
34 | N=c1nc(-c2ccccc2)ccn1O | inconclusive: 21.8%
35 | COc1ccccc1-n1c(-c2ccc(NS(C)(=O)=O)cc2)n[nH]c1=S | inconclusive: 22.3%
36 | Cc1ccc2c(c1)c1c(n2C)C(C(N)=O)CCC1 (stereo not given) | inconclusive: 14.5%
37 | COc1ccccc1/C=C/C(=O)OCC(=O)N1c2ccccc2CC1C (stereo not given) | inconclusive: 26.1%
38 | CC1CCC(NC(=O)CCNC(=O)c2ccccc2)CC1 (stereo not given) | inconclusive: 16.1%
39 | Cc1ccc2[nH]c3c(c2c1)CCCC3NC(=O)CCl (stereo not given) | inactive: -1.14%
40 | Cc1c(/C=N/NC(=O)C(C)(C)Oc2ccc(Cl)cc2)cnn1C | inconclusive: 12.8%
41 | CC(=O)c1cnn(-c2cc(Oc3cccc(C)c3)ncn2)c1C | inactive: -4.85%
42 | COc1ccc(-c2nc3c(c(SCC(=O)Nc4cccc(O)c4)n2)Cc2c(CO)cnc(C)c2O3)cc1 | inconclusive: 18.7%
43 | N=c1sccn1CC(=O)Nc1cccc(Oc2ccccc2)c1 | inconclusive: 19.2%
44 | O=c1c2cc3c(cc2[nH]c(=S)n1Cc1ccco1)OCO3 | inactive: -2.07%

Row | SMILES | inhibition
45 | COc1ccccc1NC(=O)c1ccccc1Nc1ccccc1 | inactive: -2.07%
46 | N#Cc1nc(COc2ccc(Cl)cc2Cl)oc1N1CCN(c2ccccc2)CC1 | inactive: 7.64%
47 | COc1ccc2[nH]c(C(=O)N/N=C/c3ccccc3OC)cc2c1 | inactive: 7.56%
48 | Cc1ccccc1CS(=O)(=O)CCC(=O)O | inconclusive: 18.1%
49 | Cc1cc(CN2C(=O)c3ccccc3C2=O)on1 | inconclusive: 24.3%
50 | FC(F)(F)c1cc(Oc2ccccc2Cl)nc(-c2ccccn2)n1 | inconclusive: 13.2%
51 | O=C(CCCCCNC(=S)Nc1ccccc1)C[N+](=O)[O-] | active: 28.8%
52 | CCCCOc1cccc(OCC(=O)Nc2nc3ccccc3[nH]2)c1 | inconclusive: 21.6%
53 | CCCCCN(C(=O)CCC(=O)OC(C)C(=O)NC1CCCCC1)c1c(N)n(CCCC)c(=O)[nH]c1=O (stereo not given) | inactive: 2.13%
54 | Oc1ccc(/C=N/N(c2ccccc2)c2ccccc2)cc1O | inactive: 0.751%
55 | Cc1cccc(N2CCN(C(=O)Cn3sc4nc(C)cc(C)c4c3=O)CC2C)c1 (stereo not given) | inactive: -5.42%
56 | O=C(Nc1ncccc1O)c1ccc(S(=O)(=O)N2CCCC2)cc1 | active: 72.1%
57 | CCn1cc(CN2CCc3c([nH]c4ccccc34)C2c2cccc(OC)c2OC)c(C)n1 (stereo not given) | inconclusive: 22.7%
58 | Cc1ccccc1N(C)S(=O)(=O)c1nnc(NC(=O)c2ccco2)s1 | inactive: -2.17%
59 | CC(=O)c1ccc(OCC(O)Cn2nnc3ccccc32)cc1 (stereo not given) | inconclusive: 19.5%
60 | CCC1C(=O)N(c2nc(C)cc(C)n2)N=C1C (stereo not given) | inactive: 5.71%
61 | O=C(Nc1ccc(Oc2c(F)c(F)c(F)c(F)c2F)cc1)OC1CCN2Cc3ccccc3N=C12 (stereo not given) | inactive: 4.08%
62 | CC(C)(C(=O)c1ccccc1)/[N+]([O-])=C/c1ccc(F)cc1 | inconclusive: 19.8%
63 | CCCN(CC(=O)Nc1ccccc1OC)C(=O)c1ccc(=O)[nH]c1 | inactive: 2.29%
64 | COc1ccc(-c2cc(=O)oc3cc(OC(=O)C4CCCCC4)ccc23)cc1 | inconclusive: 14.8%
65 | O=C(c1ccccc1)c1sc(N2CCOCC2)nc1-c1ccccc1 | inconclusive: 23.9%
66 | CCCCn1c(=O)nc2n(-c3ccc(OC)cc3)c3ccccc3cc-2c1=O | inconclusive: 12.8%

Rewritten in CSV form: part of the list above
Row,SMILES,inhibition
23,O=C(NCc1ccc2c(c1)OCO2)c1ccc(CSCc2ccc(Cl)cc2)o1,inconclusive: 15.6%
24,O=C(NC1(Cc2ccccc2)CCN(CCc2cccs2)C1=O)c1ccccc1 (stereo not given),inconclusive: 20.1%
25,CN(C)N1C(N)=C(C#N)C(c2ccccc2Cl)C2=C1CCCC2=O (stereo not given),inactive: 8.2%

The results go on:

Row | SMILES | inhibition
67 | CC(=O)Oc1ccc2nc(-c3ccc(Br)o3)oc(=O)c2c1 | inconclusive: 14.1%
68 | O=C(C1=NN(c2ccccc2)C2C(=O)N(c3ccccc3Cl)C(=O)C12)c1ccccc1 (stereo not given) | inactive: 13.2%
69 | COc1ccc(C(=O)Cn2c(NCCCO)nc3ccccc32)cc1OC | inactive: -1.17%
70 | COc1ccc(C[C@H]2CN3C(=NC[C@@H]3C(C)C)N2CCNC(=O)CCC2CCCCC2)cc1 | inconclusive: 23%
71 | CCn1cc(/C=C(\NC(=O)c2ccc(OC)c(OC)c2)C(=O)NCCN2CCOCC2)c2ccccc21 | inconclusive: 27.6%
72 | COC(=O)c1ccc(C(=O)OC)c(NC(=O)COC(=O)C2CCCCC2)c1 | inactive: -9.09%
73 | Cc1nn(-c2ccccc2)c2[nH]c(C(F)(F)F)cc(=O)c12 | inconclusive: 17.6%
74 | Clc1ccc(Cn2cc(/C=N/n3cnnc3)c3ccccc32)c(Cl)c1 | inconclusive: 29.2%
75 | CCOc1cccc(/C(O)=C2/C(=O)C(=O)N(CCOC)C2c2ccncc2)c1 (stereo not given) | inconclusive: 22.6%
76 | CN(CC(=O)Nc1cccc(F)c1)C(=O)c1cn(-c2ccccc2)nc1-c1ccccc1 | inconclusive: 16.2%
77 | Cc1cc(=O)oc2cc(Oc3ccc([N+](=O)[O-])cc3C(F)(F)F)ccc12 | inconclusive: 22.6%
78 | COC(=O)c1ccc(CNC(=O)COC(=O)Cc2ccsc2)cc1 | inconclusive: 20%
79 | N=C(N)c1ccc(N)cc1 | inconclusive: 25.9%
80 | CCOc1ccc(C(=O)Nc2c3c(nn2-c2ccc(F)cc2)CS(=O)C3)cc1 (stereo not given) | inconclusive: 10.8%
81 | COc1cccc(OC2OC3COC(C)(C)OC3C(O)C2NC(C)=O)c1 (stereo not given) | inconclusive: 19.6%
82 | Cc1onc(-c2ccccc2)c1C(=O)n1nnc2ccccc21 | inactive: 5.2%
83 | CC1CCCC(C)N1C(=O)COC(=O)c1ccc[nH]c1=O (stereo not given) | inconclusive: 14.1%
84 | C#CCOCCOCCOCCNc1nc(N2CCN(C(=O)CCCCCCCCCCNC(=O)[C@H](CCCCN)n3cc(CCO)nn3)CC2)nc(N2CCN(C(=O)CCCCCCCCCCNC(=O)[C@H](CCCCN)n3cc(C[C@@H](C)CC)nn3)CC2)n1 | inconclusive: 51.7%
85 | Cc1ccc(CN2CC(C(=O)N3CCN(S(=O)(=O)c4ccc(C(C)C)cc4)CC3)CC2=O)cc1 (stereo not given) | inactive: 4.65%

Some values from the entries so far.
C=CC[C@H](CC(=O)N[C@H](CO)Cc1ccccc1)C(=O)N[C@@H](COC(=O)[C@@H](CC=C)CC(=O)OC(C)(C)C)Cc1c[nH]c2ccccc12 | inhibition: active: 31.9%
COc1ccc(C[C@H]2CN3C(=NC[C@@H]3C(C)C)N2CCNC(=O)CCC2CCCCC2)cc1 | inhibition: inconclusive: 23%
Cc1ccc2[nH]c3c(c2c1)CCCC3NC(=O)CCl (stereo not given) | inhibition: inactive: -1.14%
COc1ccc(O)c(/C=N/Nc2nc(C)cc(-c3ccccc3)n2)c1 | inhibition: inconclusive: 26.4%
